The other results are listed elsewhere or left out.
What was measured:
Experiment in all cases: log2 fold change, soluble protein after heating vs DMSO (PISA); higher = thermal stabilisation; K562 lysate, 10 uM; active = over 0.2 and 3.5 SD of the protein, either way, in both replicates (recomputed)
ibrutinib = compound: C=CC(=O)N1CCC[C@@H](n2nc(-c3ccc(Oc4ccccc4)cc3)c3c(N)ncnc32)C1 [ibrutinib]
Method in brief: (§1)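 A 30 min treatment with 10 μM compound was applied to crude K562 extract at 1 mg/mL protein in PBS pH 7.4 with 1 mM MgCl2. Heating for 3 min spanned 48°C-58°C, after which aliquots were pooled, adjusted to 0.5% NP-40 at 4°C and spun at 21,000xg for 90 min. TMTpro 16plex LC-MS/MS of the supernatant, with channel sums equalised, gave values recorded as log-two fold change in thermal stability against solvent controls, from duplicates.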

Protein sequences, listed by entry. Tags and fused reporters are not part of them. Lines headed by an entry give the natural chain unless they say otherwise; changes in a name come on top.
UniProt P49585: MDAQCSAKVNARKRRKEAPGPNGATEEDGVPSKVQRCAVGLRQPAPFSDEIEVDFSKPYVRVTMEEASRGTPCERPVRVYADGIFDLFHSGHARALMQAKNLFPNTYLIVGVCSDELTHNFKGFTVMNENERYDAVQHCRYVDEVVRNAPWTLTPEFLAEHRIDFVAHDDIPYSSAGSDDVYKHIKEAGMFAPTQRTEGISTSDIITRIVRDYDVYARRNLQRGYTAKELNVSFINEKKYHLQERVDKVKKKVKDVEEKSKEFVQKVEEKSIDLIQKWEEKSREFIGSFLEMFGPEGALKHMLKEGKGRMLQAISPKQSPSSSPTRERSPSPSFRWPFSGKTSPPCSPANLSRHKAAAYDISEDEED
UniProt Q53EL6: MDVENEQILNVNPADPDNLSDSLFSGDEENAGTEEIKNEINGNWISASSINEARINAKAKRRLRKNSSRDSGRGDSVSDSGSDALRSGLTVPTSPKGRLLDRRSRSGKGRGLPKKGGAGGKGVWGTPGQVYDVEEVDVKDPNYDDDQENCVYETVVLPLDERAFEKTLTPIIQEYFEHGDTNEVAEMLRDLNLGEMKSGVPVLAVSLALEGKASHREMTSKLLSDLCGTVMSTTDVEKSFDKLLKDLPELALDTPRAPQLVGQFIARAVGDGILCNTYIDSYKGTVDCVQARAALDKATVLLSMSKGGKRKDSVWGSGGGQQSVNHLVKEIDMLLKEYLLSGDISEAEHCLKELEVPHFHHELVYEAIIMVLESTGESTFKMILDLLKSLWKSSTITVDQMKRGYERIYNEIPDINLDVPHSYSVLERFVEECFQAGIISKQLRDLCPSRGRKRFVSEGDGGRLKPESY
UniProt Q16342: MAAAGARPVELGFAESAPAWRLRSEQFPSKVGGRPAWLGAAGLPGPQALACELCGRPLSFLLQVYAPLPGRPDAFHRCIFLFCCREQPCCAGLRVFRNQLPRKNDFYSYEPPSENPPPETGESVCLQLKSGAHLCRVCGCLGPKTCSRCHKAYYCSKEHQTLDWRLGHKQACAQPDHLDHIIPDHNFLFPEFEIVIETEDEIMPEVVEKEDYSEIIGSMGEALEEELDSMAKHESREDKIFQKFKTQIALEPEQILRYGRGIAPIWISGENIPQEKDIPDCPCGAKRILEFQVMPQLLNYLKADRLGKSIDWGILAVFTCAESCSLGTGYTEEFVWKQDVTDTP
UniProt P08237: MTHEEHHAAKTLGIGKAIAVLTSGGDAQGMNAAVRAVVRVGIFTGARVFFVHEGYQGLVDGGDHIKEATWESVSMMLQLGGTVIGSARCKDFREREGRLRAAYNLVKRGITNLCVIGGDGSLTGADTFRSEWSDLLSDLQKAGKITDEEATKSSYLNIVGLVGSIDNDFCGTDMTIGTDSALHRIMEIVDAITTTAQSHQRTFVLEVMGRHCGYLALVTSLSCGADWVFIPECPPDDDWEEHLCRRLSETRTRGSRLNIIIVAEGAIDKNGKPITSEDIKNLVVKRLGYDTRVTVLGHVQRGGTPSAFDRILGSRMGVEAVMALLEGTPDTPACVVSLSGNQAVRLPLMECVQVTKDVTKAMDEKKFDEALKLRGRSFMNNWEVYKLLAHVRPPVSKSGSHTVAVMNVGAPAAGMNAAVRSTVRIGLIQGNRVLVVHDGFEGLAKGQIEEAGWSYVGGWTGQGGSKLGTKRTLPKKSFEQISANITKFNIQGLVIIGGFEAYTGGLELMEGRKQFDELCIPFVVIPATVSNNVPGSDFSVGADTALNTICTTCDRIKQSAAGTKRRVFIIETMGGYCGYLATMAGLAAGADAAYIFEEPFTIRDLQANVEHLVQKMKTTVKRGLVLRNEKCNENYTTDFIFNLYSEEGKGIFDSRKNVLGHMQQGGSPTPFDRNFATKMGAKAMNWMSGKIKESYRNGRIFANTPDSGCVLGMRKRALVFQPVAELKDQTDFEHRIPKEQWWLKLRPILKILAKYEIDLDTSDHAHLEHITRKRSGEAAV
UniProt Q8N165: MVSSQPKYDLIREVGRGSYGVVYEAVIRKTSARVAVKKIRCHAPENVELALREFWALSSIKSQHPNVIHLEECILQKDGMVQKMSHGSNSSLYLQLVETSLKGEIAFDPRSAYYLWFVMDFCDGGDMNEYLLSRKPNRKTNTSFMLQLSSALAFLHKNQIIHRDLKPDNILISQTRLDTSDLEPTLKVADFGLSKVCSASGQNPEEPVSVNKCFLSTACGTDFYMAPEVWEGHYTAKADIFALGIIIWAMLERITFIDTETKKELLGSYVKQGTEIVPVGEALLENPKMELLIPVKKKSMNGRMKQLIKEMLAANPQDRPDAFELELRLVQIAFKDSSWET
UniProt Q9BSM1: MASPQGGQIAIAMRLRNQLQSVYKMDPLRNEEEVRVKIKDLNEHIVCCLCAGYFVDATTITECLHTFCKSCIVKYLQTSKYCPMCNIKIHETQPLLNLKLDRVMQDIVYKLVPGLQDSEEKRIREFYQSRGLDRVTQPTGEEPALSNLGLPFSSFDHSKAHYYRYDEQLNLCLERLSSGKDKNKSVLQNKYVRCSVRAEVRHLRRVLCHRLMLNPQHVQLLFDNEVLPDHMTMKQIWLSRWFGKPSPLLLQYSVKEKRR
UniProt Q8N8D1: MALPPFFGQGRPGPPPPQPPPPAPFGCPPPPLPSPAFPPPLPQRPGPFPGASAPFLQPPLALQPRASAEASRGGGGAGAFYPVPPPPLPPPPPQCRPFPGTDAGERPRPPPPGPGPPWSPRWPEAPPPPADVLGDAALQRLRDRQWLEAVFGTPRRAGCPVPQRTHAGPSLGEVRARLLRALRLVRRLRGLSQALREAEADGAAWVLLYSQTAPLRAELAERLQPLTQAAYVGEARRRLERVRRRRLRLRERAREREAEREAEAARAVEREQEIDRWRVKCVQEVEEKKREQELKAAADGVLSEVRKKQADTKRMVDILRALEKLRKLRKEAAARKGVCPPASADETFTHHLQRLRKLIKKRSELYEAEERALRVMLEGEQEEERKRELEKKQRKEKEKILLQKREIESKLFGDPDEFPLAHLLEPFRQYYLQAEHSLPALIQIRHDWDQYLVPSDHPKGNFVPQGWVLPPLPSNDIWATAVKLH
UniProt O00628: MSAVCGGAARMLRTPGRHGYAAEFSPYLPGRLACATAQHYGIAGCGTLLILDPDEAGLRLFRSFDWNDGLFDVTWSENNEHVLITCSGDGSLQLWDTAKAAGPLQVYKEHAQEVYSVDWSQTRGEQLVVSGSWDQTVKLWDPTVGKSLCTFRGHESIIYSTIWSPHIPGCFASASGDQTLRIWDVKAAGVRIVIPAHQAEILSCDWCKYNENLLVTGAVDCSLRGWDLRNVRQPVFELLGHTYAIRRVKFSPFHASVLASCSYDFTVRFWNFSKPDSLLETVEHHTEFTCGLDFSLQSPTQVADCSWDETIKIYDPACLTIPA
UniProt O75340: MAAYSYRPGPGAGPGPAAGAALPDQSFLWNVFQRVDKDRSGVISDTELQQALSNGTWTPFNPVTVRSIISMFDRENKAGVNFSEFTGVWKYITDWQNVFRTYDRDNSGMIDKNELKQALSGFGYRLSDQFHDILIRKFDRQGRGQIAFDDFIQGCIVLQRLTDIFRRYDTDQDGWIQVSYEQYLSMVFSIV
UniProt Q9UKK3: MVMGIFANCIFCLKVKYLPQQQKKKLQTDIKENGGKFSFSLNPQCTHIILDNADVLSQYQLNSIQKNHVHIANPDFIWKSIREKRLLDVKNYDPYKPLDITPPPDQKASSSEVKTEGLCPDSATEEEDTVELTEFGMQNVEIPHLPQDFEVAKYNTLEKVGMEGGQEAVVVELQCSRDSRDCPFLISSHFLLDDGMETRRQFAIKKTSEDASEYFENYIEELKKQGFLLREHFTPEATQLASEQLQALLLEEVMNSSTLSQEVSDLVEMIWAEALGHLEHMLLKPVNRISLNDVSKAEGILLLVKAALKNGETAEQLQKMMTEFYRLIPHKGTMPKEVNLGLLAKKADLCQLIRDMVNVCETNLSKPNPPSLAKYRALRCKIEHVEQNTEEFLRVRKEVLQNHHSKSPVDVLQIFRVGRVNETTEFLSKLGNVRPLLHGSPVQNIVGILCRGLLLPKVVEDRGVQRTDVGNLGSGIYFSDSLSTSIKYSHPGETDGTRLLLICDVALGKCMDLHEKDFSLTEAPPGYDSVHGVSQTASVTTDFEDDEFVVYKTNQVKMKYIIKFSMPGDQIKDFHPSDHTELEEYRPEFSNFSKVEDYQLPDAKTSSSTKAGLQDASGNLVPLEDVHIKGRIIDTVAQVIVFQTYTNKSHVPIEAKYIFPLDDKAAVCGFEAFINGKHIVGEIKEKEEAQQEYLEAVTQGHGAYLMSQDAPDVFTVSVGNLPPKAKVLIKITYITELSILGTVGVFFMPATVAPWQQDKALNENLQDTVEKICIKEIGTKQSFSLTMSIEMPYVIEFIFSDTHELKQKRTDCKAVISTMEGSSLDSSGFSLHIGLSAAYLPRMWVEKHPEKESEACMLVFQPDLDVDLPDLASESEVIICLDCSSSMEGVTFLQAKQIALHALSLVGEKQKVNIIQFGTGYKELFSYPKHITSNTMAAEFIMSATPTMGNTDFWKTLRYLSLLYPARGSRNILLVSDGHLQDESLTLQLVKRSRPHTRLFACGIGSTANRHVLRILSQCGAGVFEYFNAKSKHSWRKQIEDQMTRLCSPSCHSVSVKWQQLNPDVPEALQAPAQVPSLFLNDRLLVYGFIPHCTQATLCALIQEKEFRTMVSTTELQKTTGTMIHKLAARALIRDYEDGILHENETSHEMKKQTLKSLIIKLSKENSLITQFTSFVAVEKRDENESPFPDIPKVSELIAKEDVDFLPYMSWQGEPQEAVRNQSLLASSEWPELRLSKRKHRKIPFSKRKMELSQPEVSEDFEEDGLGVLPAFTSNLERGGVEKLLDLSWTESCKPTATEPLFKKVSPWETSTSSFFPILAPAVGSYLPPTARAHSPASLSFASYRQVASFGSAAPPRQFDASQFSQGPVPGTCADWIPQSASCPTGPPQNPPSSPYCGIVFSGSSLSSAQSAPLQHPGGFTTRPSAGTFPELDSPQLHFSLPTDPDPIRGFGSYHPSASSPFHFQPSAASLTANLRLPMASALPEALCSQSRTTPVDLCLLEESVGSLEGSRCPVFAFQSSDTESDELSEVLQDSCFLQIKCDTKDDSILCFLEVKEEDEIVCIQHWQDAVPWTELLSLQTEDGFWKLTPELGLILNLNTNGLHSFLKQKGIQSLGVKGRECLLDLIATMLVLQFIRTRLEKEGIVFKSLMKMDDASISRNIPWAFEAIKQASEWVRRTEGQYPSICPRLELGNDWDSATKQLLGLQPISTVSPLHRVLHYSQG
UniProt O60658: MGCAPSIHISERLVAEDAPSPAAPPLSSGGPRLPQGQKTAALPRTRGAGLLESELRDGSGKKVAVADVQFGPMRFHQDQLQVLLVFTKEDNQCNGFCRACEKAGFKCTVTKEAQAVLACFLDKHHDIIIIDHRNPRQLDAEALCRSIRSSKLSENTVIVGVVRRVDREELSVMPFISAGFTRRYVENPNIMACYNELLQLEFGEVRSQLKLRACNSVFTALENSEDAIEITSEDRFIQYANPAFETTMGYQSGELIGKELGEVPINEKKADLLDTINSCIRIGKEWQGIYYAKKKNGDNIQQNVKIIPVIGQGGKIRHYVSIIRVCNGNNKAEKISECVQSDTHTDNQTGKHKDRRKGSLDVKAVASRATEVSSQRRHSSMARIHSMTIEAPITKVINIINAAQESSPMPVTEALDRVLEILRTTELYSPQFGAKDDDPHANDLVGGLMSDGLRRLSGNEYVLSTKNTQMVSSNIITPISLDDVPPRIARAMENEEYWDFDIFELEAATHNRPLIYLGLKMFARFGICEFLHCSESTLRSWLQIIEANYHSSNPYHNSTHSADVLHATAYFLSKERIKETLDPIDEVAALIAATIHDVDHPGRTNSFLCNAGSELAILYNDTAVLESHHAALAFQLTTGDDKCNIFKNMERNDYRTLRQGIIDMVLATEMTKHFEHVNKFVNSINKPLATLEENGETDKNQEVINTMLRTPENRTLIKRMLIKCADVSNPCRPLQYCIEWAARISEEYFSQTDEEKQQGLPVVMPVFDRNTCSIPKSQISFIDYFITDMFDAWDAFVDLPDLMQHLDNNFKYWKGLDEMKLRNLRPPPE
UniProt Q15004: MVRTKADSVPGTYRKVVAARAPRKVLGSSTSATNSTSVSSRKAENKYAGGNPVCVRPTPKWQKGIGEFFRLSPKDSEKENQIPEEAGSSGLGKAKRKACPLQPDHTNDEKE
UniProt O00623: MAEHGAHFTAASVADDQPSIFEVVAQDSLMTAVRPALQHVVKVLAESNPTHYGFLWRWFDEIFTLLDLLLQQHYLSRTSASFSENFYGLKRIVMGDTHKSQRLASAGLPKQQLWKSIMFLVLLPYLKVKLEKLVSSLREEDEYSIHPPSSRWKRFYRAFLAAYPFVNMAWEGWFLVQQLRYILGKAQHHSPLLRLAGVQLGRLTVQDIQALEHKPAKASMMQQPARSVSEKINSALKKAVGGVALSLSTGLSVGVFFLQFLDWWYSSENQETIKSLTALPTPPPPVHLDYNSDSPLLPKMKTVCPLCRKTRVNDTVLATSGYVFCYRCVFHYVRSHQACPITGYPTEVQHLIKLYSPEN

[1] = compound: CC(=O)c1cnc2ccc(-c3cc(Cl)c(O)c(Cl)c3)nc2c1N[C@H]1CC[C@H](CN(C)C)CC1
Method in brief: as §1

ralimetinib = compound: CC(C)(C)Cn1c(N)nc2ccc(-c3[nH]c(C(C)(C)C)nc3-c3ccc(F)cc3)nc21 [ralimetinib]
Method in brief: as §1

[2] = compound: CC(C)(O)CC(=O)NCCn1ccc2ncnc(Nc3ccc(Oc4cccc(C(F)(F)F)c4)c(Cl)c3)c21
Method in brief: as §1

[3] = compound: CC(C)C1=C2N=C(C=C(N2N=C1)NCC3=CC=CC=C3)NCCCCCCN
Method in brief: as §1

[4] = compound: CC1=C(C(CC(=O)N1)C2=CC=C(C=C2)C(F)(F)F)C(=O)NC3=C(C=C4C(=C3)C=NN4)F
Method in brief: as §1

[5] = compound: CC1=C(C2=C(C=C1)C(=O)C3=CC=CC=C3N2CCCN)C
Method in brief: as §1

[6] = compound: CC1=C(C=C(C=C1)NC(=O)C2=CC(=CC=C2)C(C)(C)C#N)NC3=CC4=C(C=C3)N=CN(C4=O)C
Method in brief: as §1

[7] = compound: CC1=C(C=C(C=C1)NC(=O)C2=CC(=CC=C2)N(C)C)NC(=O)C3=CC=C(C=C3)O
Method in brief: as §1

[8] = compound: CC1=CC=C(C=C1)SC2=C3C=C(SC3=CN=C2)C(=O)N
Method in brief: as §1

Measured: log2 fold change

PCYT1A (UniProt P49585)
inactive: ibrutinib 0.052 | [1] 0.003 | ralimetinib 0.01 | [2] -0.023 | [3] 0.023 | [4] 0.023 | [5] 0.024 | [6] -0.076 | [7] 0.042 | [8] -0.046

PDZD11 isoform 2 (UniProt Q5EBL8)
inactive: ibrutinib 0.083 | [1] -0.011 | ralimetinib -0.009 | [2] -0.044 | [3] -0.018 | [4] -0.044 | [5] 0.016 | [6] 0.005 | [7] -0.022 | [8] 0.003

PDCD4 (UniProt Q53EL6)
inactive: ibrutinib -0.002 | [1] -0.002 | ralimetinib 0.025 | [2] -0.032 | [3] 0.007 | [4] 0.025 | [5] -0.003 | [6] 0.032 | [7] 0.007 | [8] 0.011

PBX2 (UniProt P40425)
inactive: ibrutinib -0.012 | [1] 0.058 | ralimetinib -0.017 | [2] 0 | [3] 0.048 | [4] 0.044 | [5] -0.005 | [6] 0.052 | [7] 0.006 | [8] 0.012

PDCD2 (UniProt Q16342)
inactive: ibrutinib 0.062 | [1] 0.005 | ralimetinib 0 | [2] -0.019 | [3] 0.016 | [4] -0.026 | [5] -0.019 | [6] 0.097 | [7] 0.012 | [8] 0.012

PEX5 isoform 4 (UniProt P50542)
inactive: ibrutinib 0.049 | [1] 0.056 | ralimetinib 0.018 | [2] 0.006 | [3] -0.04 | [4] -0.028 | [5] -0.001 | [6] 0.02 | [7] 0.045 | [8] 0.018

PFKM isoform 3 (UniProt P08237)
inactive: ibrutinib 0.016 | [1] -0.001 | ralimetinib -0.009 | [2] -0.01 | [3] -0.006 | [4] -0.003 | [5] 0.012 | [6] 0 | [7] -0.009 | [8] 0.08

PDIA4 (UniProt P13667)
inactive: ibrutinib 0.006 | [1] -0.008 | ralimetinib -0.016 | [2] 0.011 | [3] 0.001 | [4] -0.01 | [5] 0.021 | [6] -0.038 | [7] 0.011 | [8] 0.007

PEX1 (UniProt O43933)
inactive: [1] -0.066 | ralimetinib 0.113 | [2] 0.07 | [6] 0.021 | [7] 0 | [8] 0.013

PCGF3 isoform 2 (UniProt Q3KNV8)
inactive: [3] 0.085 | [6] -0.032

PEMT isoform 2 (UniProt Q9UBM1)
inactive: [1] 0.257 | [8] 0.076

PEX3 (UniProt P56589)
inactive: [1] -0.037 | [5] -0.035 | [6] -0.031 | [8] -0.116

PDIK1L (UniProt Q8N165)
inactive: ralimetinib -0.115 | [2] -0.153 | [5] 0.035 | [7] -0.036

PCBP2 (UniProt F8W0G4)
inactive: ibrutinib -0.27 | ralimetinib -0.061 | [2] -0.282 | [3] -0.175 | [4] -0.045 | [5] -0.083 | [7] 0.049

PFN1 (UniProt I3L3D5)
inactive: ibrutinib -0.045 | [1] -0.053 | ralimetinib 0.045 | [2] -0.033 | [4] -0.013 | [7] 0 | [8] 0.031

PCGF1 (UniProt Q9BSM1)
inactive: [3] 0.027 | [5] -0.056

PDCD7 (UniProt Q8N8D1)
inactive: [6] -0.297

PEAK1 (UniProt Q9H792)
inactive: ibrutinib 0.105 | ralimetinib -0.038 | [2] 0.037 | [3] -0.135 | [4] 0.098 | [5] -0.026 | [6] -0.06 | [7] 0.097

PCBP2 (UniProt F8VRH0)
inactive: [1] -0.014 | ralimetinib 0.087 | [2] -0.033 | [3] 0.051 | [4] 0.129 | [6] 0.017 | [7] 0.012 | [8] 0.027

PFN3 (UniProt P60673)
inactive: [1] 0.042 | [4] -0.02 | [6] -0.03 | [8] -0.02

PEX7 (UniProt O00628)
inactive: ibrutinib -0.063 | [1] 0.001 | ralimetinib -0.113 | [2] 0 | [5] -0.132 | [7] -0.05 | [8] -0.026

PDIA4, A0A499FI48
inactive: [5] -0.017 | [6] -0.066

PDE4A (UniProt P27815)
inactive: ibrutinib 0.156 | ralimetinib -0.091 | [2] 0.009 | [3] -0.082 | [4] 0.071 | [5] 0.009 | [6] -0.042 | [7] 0

PDP1 isoform 2 (UniProt Q9P0J1)
inactive: ralimetinib -0.174 | [2] -0.239 | [3] 0.056 | [5] 0.079 | [7] -0.021

PCGF6 (UniProt Q9BYE7)
inactive: [1] 0.238 | ralimetinib -0.017 | [2] -0.064 | [3] 0 | [4] -0.031 | [5] -0.011 | [6] 0.129 | [7] 0.104 | [8] 0.118

PEX6 (UniProt Q13608)
inactive: ibrutinib 0.365 | [3] -0.03 | [5] 0.086

Reprinted at random: 2 records from the list, in no set order.
PCGF6 (UniProt Q9BYE7)
inactive: [1] 0.238 | ralimetinib -0.017 | [2] -0.064 | [3] 0 | [4] -0.031 | [5] -0.011 | [6] 0.129 | [7] 0.104 | [8] 0.118

PDE4A (UniProt P27815)
inactive: ibrutinib 0.156 | ralimetinib -0.091 | [2] 0.009 | [3] -0.082 | [4] 0.071 | [5] 0.009 | [6] -0.042 | [7] 0

Following part:

PARPBP (UniProt Q9NWS1)
inactive: ibrutinib 0.046 | [3] -0.124 | [4] -0.033 | [5] -0.032

PDCD6 isoform 2 (UniProt O75340)
inactive: ralimetinib 0.025 | [2] -0.119 | [7] -0.021

PARP4 (UniProt Q9UKK3)
inactive: ibrutinib 0.012 | [1] -0.05 | [3] 0.092 | [4] 0.091 | [5] 0.026 | [6] -0.084 | [8] -0.156

PDE8A (UniProt O60658)
inactive: ibrutinib 0.183 | [3] -0.274 | [6] 0.035

PCK1 (UniProt P35558)
inactive: ibrutinib 0 | [1] -0.074 | [8] -0.172

PCLAF (UniProt Q15004)
inactive: ibrutinib 0.025 | ralimetinib 0.035 | [2] -0.014 | [3] -0.011 | [4] 0.003 | [5] -0.041 | [6] 0.034 | [7] -0.005

PCM1 isoform 5 (UniProt Q15154)
inactive: [6] 0.079

PCMTD2 (UniProt Q9NV79)
inactive: [3] -0.264 | [6] -0.019

PEX5 (UniProt J3KPV0)
inactive: ralimetinib 0.306 | [2] -0.102 | [7] 0.009

PER1 (UniProt O15534)
inactive: [5] -0.087 | [6] 0.126

PGD (UniProt K7EPF6)
inactive: ibrutinib 0.108 | [1] -0.21 | [4] -0.017 | [6] -0.05 | [8] -0.34

PCNX3 (UniProt Q9H6A9)
inactive: ibrutinib 0.008 | [1] -0.01 | [5] -0.218 | [6] -0.051 | [8] -0.049

PDE3B (UniProt Q13370)
inactive: ralimetinib 0.065 | [2] 0.058 | [5] -0.062 | [7] -0.064

PDE4DIP (UniProt E9PS60)
inactive: [3] 0.037 | [4] -0.113 | [5] 0.076 | [6] 0.234

PEX12 (UniProt O00623)
inactive: [1] 0.018 | [8] 0.005
